From paper PMC6109179
Results are given in words; binding and its absence hold for the method and conditions named. In cells and extracts the contact can be indirect. Some binding calls cover weakened binding; strength is not graded here. Tags and fused reporters may be left off the sequences shown.

The chains behind the UniProt entries cited, without tags or fusion partners. Where a name states a change or a piece, a line headed by the entry shows the natural chain unless it says otherwise.
UniProt P20823: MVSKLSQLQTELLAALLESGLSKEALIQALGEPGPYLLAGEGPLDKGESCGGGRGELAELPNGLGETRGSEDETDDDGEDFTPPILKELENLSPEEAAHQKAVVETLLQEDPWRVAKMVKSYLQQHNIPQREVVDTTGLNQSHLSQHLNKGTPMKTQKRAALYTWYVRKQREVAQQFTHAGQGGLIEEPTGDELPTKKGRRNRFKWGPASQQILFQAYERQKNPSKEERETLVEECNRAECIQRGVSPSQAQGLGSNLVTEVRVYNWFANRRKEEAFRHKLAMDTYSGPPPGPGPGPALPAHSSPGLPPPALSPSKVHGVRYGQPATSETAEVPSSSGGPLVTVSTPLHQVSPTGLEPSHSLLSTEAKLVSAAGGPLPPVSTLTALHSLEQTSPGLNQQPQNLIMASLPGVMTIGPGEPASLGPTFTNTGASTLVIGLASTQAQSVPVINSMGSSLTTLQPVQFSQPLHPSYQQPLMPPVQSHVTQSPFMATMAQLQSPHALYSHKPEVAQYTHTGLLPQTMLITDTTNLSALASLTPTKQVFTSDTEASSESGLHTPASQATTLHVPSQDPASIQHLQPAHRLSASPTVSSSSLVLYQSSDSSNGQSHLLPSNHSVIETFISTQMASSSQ

What was measured:
Assay in all cases: co-IP; HEK293 cells transiently co-transfected with V5-tagged HNF-1A (WT or mutant) and Flag-tagged PIASγ; lysed in IP Lysis/Wash Buffer with 20 mM N-ethylmaleimide and protease inhibitors; immunoprecipitation with anti-V5 antibody (Pierce Co-IP kit), immunoblot with anti-Flag and anti-V5
[1] = target: HNF-1A K205R, V5-tagged (human) (UniProt P20823)
[2] = target: HNF-1A K273R, V5-tagged (human) (UniProt P20823)
[3] = target: HNF-1A K506R, V5-tagged (human) (UniProt P20823)
[4] = target: HNF-1A triple mutant K205RK273RK506R, V5-tagged (human) (UniProt P20823)
[5] = target: hepatocyte nuclear factor-1α (HNF-1A), wild type, V5-tagged (human) (UniProt P20823)

Measured: binding

B1: protein inhibitor of activated STAT (PIASγ), Flag-tagged (enzyme, UniProt Q8N2W9 1-510)
chain: MAAELVEAKNMVMSFRVSDLQMLLGFVGRSKSGLKHELVTRALQLVQFDCSPELFKKIKELYETRYAKKNSEPAPQPHRPLDPLTMHSTYDRAGAVPRTPLAGPNIDYPVLYGKYLNGLGRLPAKTLKPEVRLVKLPFFNMLDELLKPTELVPQNNEKLQESPCIFALTPRQVELIRNSRELQPGVKAVQVVLRICYSDTSCPQEDQYPPNIAVKVNHSYCSVPGYYPSNKPGVEPKRPCRPINLTHLMYLSSATNRITVTWGNYGKSYSVALYLVRQLTSSELLQRLKTIGVKHPELCKALVKEKLRLDPDSEIATTGVRVSLICPLVKMRLSVPCRAETCAHLQCFDAVFYLQMNEKKPTWMCPVCDKPAPYDQLIIDGLLSKILSECEDADEIEYLVDGSWCPIRAEKERSCSPQGAILVLGPSDANGLLPAPSVNGSGALGSTGGGGPVGSMENGKPGADVVDLTLDSSSSSEDEEEEEEEEEDEDEEGPRPKRRCPFQKGLVPAC
binds: all assays above
